Measurements: article PMC3936769
Results are given in words; binding and its absence hold for the method and conditions named. Binding seen in cells or lysates may run through a third protein. A yes stands for co-enrichment or nearness to the bait. Other partners may have been found. Where a sequence is shown, tags or fusion partners need not be part of it.

Target: T1, aIF2-γHis, His-tagged aIF2-γ expressed in Sulfolobus solfataricus (Sulfolobus solfataricus) (UniProt Q980A5)
T1 sequence: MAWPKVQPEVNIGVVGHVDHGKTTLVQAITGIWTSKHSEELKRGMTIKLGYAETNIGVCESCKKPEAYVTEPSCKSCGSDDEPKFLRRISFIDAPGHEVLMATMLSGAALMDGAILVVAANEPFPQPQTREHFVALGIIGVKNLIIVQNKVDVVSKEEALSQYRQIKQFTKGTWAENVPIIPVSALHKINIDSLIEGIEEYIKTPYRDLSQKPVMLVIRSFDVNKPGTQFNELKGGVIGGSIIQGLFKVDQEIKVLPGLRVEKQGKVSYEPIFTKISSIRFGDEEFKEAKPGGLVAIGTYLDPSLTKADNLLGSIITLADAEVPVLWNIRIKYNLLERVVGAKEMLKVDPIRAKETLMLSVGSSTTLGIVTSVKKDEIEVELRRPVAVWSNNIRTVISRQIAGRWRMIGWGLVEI
Test: affinity purification with mass spectrometry; aIF2-γHis captured by Ni-affinity chromatography from extracts of Sso PH1-16(pMJ05-γHis) after prolonged stationary phase and 3 h after outgrowth; buffer A (50 mM Tris-HCl pH 8.0, 300 mM NaCl, 15 mM imidazole, 10 mM β-mercaptoethanol), elution with 250 mM imidazole; Coomassie-stained gel, Sso2509 band identified by mass spectrometry; mock purification from PH1-16(pMJ05)

binding: binds
Substance: Sso protein 2509 (Trf), endogenous
